Measurements reported in publication PMC10290672.

Target: T1, GST-WRNIP1 (UniProt Q96S55)
T1 sequence: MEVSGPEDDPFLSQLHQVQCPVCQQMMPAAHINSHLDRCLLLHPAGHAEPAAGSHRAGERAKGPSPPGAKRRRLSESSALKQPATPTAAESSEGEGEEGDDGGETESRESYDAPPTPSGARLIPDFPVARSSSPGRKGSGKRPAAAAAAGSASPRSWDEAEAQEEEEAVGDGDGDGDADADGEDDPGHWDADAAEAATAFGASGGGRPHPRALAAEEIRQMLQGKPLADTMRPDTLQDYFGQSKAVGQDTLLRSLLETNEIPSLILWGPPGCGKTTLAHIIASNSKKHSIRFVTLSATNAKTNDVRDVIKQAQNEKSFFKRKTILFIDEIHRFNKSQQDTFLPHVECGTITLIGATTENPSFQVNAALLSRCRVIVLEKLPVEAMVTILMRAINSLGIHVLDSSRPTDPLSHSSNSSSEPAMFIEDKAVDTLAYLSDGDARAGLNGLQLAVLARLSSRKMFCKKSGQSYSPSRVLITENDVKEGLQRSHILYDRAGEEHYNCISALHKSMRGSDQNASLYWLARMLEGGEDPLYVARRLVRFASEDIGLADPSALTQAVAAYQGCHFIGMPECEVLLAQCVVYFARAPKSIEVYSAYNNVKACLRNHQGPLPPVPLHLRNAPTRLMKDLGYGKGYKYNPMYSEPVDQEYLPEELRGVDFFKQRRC
Test: pull-down; 5 ug GST-WRNIP1 on GSH-Sepharose beads with various concentrations of His-MIUMyUb in 200 ul modified JS buffer, western blotting; in Fig. 3e 1 uM His-MIUMyUb with increasing K63 polyubiquitin (interaction enhanced); both purified

binding: binds
Substance: His-tagged MIUMyUb domain construct of myosin VI (aa 992-1122, isoform 1) (domain or fragment)

No constants are given. Whether binding was seen depends on the method and setting. Binding calls can cover weak binding; strength is not graded here. Where a sequence is shown, tags or fusion partners need not be part of it.
